This is an account of results in paper PMC10889563, “The Multienzyme Complex Nature of Dehydroepiandrosterone Sulfate Biosynthesis” (International Journal of Molecular Sciences, 2024).

Sequences of proteins named here, by UniProt entry; tags and fusion partners are left off.
UniProt P50237: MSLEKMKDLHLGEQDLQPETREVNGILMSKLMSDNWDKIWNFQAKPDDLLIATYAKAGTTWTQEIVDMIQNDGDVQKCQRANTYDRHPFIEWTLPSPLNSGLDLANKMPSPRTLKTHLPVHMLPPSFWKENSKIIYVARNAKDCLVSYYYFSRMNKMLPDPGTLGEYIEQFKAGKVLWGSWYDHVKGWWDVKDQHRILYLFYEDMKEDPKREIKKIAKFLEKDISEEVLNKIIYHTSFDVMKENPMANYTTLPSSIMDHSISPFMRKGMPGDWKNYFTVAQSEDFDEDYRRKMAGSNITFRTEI
UniProt P52847: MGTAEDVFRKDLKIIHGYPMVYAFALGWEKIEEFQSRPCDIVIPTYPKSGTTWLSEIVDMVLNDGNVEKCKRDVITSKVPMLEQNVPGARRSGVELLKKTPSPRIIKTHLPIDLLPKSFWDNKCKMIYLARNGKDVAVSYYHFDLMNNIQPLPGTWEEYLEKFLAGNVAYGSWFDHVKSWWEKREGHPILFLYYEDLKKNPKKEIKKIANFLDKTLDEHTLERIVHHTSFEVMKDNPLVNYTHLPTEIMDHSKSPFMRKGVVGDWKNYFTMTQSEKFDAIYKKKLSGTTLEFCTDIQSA
UniProt P17988: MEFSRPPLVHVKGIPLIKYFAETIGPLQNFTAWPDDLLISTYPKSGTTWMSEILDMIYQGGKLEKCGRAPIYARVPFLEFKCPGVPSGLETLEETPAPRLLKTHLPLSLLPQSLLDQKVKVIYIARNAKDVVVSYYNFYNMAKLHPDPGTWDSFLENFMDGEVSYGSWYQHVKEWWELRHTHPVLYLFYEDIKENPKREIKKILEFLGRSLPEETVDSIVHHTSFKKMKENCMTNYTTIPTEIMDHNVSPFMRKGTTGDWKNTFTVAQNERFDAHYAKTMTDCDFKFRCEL
UniProt P30839: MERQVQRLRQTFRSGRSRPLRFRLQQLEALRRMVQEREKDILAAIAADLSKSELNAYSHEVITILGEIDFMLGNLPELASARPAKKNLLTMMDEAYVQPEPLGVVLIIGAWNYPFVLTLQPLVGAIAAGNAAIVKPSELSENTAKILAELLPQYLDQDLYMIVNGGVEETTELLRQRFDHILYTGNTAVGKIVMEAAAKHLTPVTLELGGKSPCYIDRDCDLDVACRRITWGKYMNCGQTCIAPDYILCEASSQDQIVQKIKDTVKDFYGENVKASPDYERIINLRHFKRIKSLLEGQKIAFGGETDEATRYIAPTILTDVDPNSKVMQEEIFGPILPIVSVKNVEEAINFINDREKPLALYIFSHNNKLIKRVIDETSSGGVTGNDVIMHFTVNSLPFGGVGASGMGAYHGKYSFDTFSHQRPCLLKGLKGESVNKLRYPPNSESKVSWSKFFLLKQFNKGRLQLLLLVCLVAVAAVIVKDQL

In the test the target is T1, sulfotransferase SULT1E1 (human, UniProt P49888 1-294).
T1 construct: cytosolic sulfotransferase SULT1E1, human, recombinant; The oligomeric state in the assay is not known to the authors; source: E. coli DH5α, purified (Ni-NTA agarose, hydroxyapatite)
T1 sequence (looked up): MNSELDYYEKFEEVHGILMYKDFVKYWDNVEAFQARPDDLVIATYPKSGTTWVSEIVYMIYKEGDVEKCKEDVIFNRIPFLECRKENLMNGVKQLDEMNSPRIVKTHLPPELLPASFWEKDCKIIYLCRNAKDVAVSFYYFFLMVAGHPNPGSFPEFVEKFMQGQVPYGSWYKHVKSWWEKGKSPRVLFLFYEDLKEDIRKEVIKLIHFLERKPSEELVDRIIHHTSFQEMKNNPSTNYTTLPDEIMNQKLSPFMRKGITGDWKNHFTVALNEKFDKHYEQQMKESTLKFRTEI
In words: affinity purification with mass spectrometry; recombinant SULT1E1 or SULT2A1 covalently immobilised on CNBr-Sepharose 4B; rat liver tissue lysate; HBS-P buffer (10 mM HEPES, 150 mM NaCl, 0.005% Tween-20, pH 7.4), PAPS-free; elution with 4% formic acid; LC-MS/MS; sorbent without protein as control; only the target purified.

Results are given in words; binding and its absence hold for the method and conditions named. In cells and extracts the contact can be indirect. A yes stands for co-enrichment or nearness to the bait. Other partners may have been found.

As to “Sulfotransferase 1C1 (from UniProt P50237 1-304)”, the binding result was “binds”.

“Sulfotransferase family cytosolic 1B member 1 (from UniProt P52847 1-299)”: the binding result is recorded as “binds”.

Regarding “Sulfotransferase 1A1 (from UniProt P17988 1-291)”, the binding entry is “binds”.

As for “Fatty aldehyde dehydrogenase (from UniProt P30839 1-484)”, the binding entry is given as “binds”.

B1: D-beta-hydroxybutyrate dehydrogenase, mitochondrial (protein, UniProt P29147 47-343)
chain: TSQADAASGKAVLVTGCDSGFGFSLAKHLHSKGFLVFAGCLLKDKGDAGVRELDSLKSDRLRTIQLNVCNSEEVEKAVETVRSGLKDPEKGMWGLVNNAGISTFGEVEFTSMETYKEVAEVNLWGTVRTTKSFLPLLRRAKGRVVNISSMLGRMANPARSPYCITKFGVEAFSDCLRYEMHPLGVKVSVVEPGNFIAATSLYSPERIQAIAKKMWDELPEVVRKDYGKKYFDEKIAKMETYCNSGSTDTSSVINAVTHALTAATPYTRYHPMDYYWWLRMQVMTHFPGAISDKIYIH
With B1, the binding entry is reported as “binds”.

B2: Sarcosine dehydrogenase, mitochondrial (protein, UniProt Q64380 23-919)
chain: LGLQPLAREARPTTEKSVPYQCTLKEEAQGASVVPQGPSQPLPSTANVVVIGGGSLGCQTLYHLAKLGVGGVVLLERERLTSGTTWHTAGLLWQLRPSDVEVELLAHTRQVVSHDLEEETGLHTGWIQNGGLFIASNQQRLDEYKRLMSLGKAYGIESHVLSPAETKDLYPLMNVDDLYGTLYVPRDGTMDPAGTCTTLTRAAVARGAQVIENCAVTGIRVRTDDFGVRRVTAVETQHGSIQTPCVVNCAGVWASSVGRMAGVKVPLVAMHHAYVVTERIEGIQNMPNVRDHDASVYLRLQGDALSVGGYEANPIFWDEVSDKFAFGLFDLDWDVFTQHIEGAINRVPVLEKTGIKSTVCGPESFTPDHKPLMGEAPELRGFFLGCGFNSAGMMLGGGCGQELAHWIVHGRPEKDMYSYDIRRFHHSLTDHPRWIRERSHESYAKNYSVVFPHDEPLAGRNMRRDPLHEELLGQGCVFQERQGWERPGWFNPQETAQVLDYDYYGAYGHQAHKDYAYSRLLGDEYTFDFPPHHCVIQKECLACRTAAAVFNMSYFGKFYLLGADARKAPDWLFSADVNRPPGSTVYTCMLNQRGGTESDLTVSCLAPGAQASPLAPAFEGDGYYLAVGGAVAQHNWSHINTVLQDQEFRCQLMDCSEDLGMLSIQGPASRDILQDVLDADLSNEAFPFSTHQLVRAAGHLVRAIRLSFVGELGWELHVPQASCLPVYRAVMAAGAKHGLVNAGYRAIDSLSIEKGYRHWHADLRSDDSPLEAGLAFTCKLKTSVPFLGREALEKQRATGLRRRLVCLTVEEEVPMFGLEAIWRNGQVVGHVRRADFGFTVNKTIAYGYIRDPSGGPVSLDFVKNGDYALERMGVTYAAQVHLKSPFDPDNKRVKGIY
Regarding B2, the binding entry is given as “binds”.

B3: Argininosuccinate synthase (protein, UniProt P09034 1-412)
chain: MSSKGSVVLAYSGGLDTSCILVWLKEQGYDVIAYLANIGQKEDFEEARKKALKLGAKKVFIEDVSKEFVEEFIWPAVQSSALYEDRYLLGTSLARPCIARKQVEIAQREGAKYVSHGATGKGNDQVRFELTCYSLAPQIKVIAPWRMPEFYNRFKGRNDLMEYAKQHGIPIPVTPKSPWSMDENLMHISYEAGILENPKNQAPPGLYTKTQDPAKAPNTPDVLEIEFKKGVPVKVTNVKDGTTHSTSLDLFMYLNEVAGKHGVGRIDIVENRFIGMKSRGIYETPAGTILYHAHLDIEAFTMDREVRKIKQGLGLKFAELVYTGFWHSPECEFVRHCIDKSQERVEGKVQVSVFKGQVYILGRESPLSLYNEELVSMNVQGDYEPIDATGFININSLRLKEYHRLQSKVTAK
As for B3, the binding result is “binds”.

B4: ATP-dependent 6-phosphofructokinase, liver type (protein, UniProt P30835 1-780)
chain: MATVDLEKLRMSGAGKAIGVLTSGGDAQGMNAAVRAVTRMGIYVGAKVFLIYEGYEGLVEGGENIKPANWLSVSNIIQLGGTIIGSARCKAFTTREGRLAAAYNLLQHGITNLCVIGGDGSLTGANIFRNEWGSLLEELVKEGKISESTAQNYAHLSIAGLVGSIDNDFCGTDMTIGTDSALHRIMEVIDAITTTAQSHQRTFVLEVMGRHCGYLALVSALASGADWLFIPEAPPEDGWENFMCERLGETRSRGSRLNIIIIAEGAIDRHGKPISSSYVKDLVVQRLGFDTRVTVLGHVQRGGTPSAFDRVLSSKMGMEAVMALLEATPDTPACVVSLSGNQSVRLPLMECVQVTKDVQKAMDEKRFDEAIQLRGRSFENNWKIYKLLAHQKVSKEKSNFSLAILNVGAPAAGMNAAVRSAVRTGISEGHTVYVVHDGFEGLAKGQVQEVGWHDVAGWLGRGGSMLGTKRTLPKPHLEAIVENLRTYNIHALLVIGGFEAYEGVLQLVEARGRYEELCIVMCVIPATISNNVPGTDFSLGSDTAVNAAMESCDRIKQSASGTKRRVFIVETMGGYCGYLATVTGIAVGADAAYVFEDPFNIHDLKANVEHMTEKMKTDIQRGLVLRNEKCHEHYTTEFLYNLYSSEGRGVFDCRTNVLGHLQQGGAPTPFDRNYGTKLGVKAMLWMSEKLRDVYRKGRVFANAPDSACVIGLRKKVVAFSSVTELKKETDFEHRMPREQWWLNLRLMLKMLAHYRISMADYVSGELEHVTRRTLSIDKGF
Turning to B4, the binding entry is recorded as “binds”.

B5: Fructose-bisphosphate aldolase B (protein, UniProt P00884 1-364)
chain: MAHRFPALTSEQKKELSEIAQRIVANGKGILAADESVGTMGNRLQRIKVENTEENRRQFRELLFSVDNSISQSIGGVILFHETLYQKDSQGKLFRNILKEKGIVVGIKLDQGGAPLAGTNKETTIQGLDGLSERCAQYKKDGVDFGKWRAVLRISDQCPSSLAIQENANALARYASICQQNGLVPIVEPEVLPDGDHDLEHCQYVSEKVLAAVYKALNDHHVYLEGTLLKPNMLTAGHACTKKYTPEQVAMATVTALHRTVPAAVPSICFLSGGMSEEDATLNLNAIYRCPLPRPWKLSFSYGRALQASALAAWGGKAANKKATQEAFMKRAVANCQAAQGQYVHTGSSGAASTQSLFTASYTY
Take B5: the binding result is “binds”.
